The source of these data is paper PMC2763855.

Chains of the proteins cited; added tags and fusions are not shown. Lines headed by an entry give the natural chain unless they say otherwise; changes in a name come on top.
UniProt Q9UKN7: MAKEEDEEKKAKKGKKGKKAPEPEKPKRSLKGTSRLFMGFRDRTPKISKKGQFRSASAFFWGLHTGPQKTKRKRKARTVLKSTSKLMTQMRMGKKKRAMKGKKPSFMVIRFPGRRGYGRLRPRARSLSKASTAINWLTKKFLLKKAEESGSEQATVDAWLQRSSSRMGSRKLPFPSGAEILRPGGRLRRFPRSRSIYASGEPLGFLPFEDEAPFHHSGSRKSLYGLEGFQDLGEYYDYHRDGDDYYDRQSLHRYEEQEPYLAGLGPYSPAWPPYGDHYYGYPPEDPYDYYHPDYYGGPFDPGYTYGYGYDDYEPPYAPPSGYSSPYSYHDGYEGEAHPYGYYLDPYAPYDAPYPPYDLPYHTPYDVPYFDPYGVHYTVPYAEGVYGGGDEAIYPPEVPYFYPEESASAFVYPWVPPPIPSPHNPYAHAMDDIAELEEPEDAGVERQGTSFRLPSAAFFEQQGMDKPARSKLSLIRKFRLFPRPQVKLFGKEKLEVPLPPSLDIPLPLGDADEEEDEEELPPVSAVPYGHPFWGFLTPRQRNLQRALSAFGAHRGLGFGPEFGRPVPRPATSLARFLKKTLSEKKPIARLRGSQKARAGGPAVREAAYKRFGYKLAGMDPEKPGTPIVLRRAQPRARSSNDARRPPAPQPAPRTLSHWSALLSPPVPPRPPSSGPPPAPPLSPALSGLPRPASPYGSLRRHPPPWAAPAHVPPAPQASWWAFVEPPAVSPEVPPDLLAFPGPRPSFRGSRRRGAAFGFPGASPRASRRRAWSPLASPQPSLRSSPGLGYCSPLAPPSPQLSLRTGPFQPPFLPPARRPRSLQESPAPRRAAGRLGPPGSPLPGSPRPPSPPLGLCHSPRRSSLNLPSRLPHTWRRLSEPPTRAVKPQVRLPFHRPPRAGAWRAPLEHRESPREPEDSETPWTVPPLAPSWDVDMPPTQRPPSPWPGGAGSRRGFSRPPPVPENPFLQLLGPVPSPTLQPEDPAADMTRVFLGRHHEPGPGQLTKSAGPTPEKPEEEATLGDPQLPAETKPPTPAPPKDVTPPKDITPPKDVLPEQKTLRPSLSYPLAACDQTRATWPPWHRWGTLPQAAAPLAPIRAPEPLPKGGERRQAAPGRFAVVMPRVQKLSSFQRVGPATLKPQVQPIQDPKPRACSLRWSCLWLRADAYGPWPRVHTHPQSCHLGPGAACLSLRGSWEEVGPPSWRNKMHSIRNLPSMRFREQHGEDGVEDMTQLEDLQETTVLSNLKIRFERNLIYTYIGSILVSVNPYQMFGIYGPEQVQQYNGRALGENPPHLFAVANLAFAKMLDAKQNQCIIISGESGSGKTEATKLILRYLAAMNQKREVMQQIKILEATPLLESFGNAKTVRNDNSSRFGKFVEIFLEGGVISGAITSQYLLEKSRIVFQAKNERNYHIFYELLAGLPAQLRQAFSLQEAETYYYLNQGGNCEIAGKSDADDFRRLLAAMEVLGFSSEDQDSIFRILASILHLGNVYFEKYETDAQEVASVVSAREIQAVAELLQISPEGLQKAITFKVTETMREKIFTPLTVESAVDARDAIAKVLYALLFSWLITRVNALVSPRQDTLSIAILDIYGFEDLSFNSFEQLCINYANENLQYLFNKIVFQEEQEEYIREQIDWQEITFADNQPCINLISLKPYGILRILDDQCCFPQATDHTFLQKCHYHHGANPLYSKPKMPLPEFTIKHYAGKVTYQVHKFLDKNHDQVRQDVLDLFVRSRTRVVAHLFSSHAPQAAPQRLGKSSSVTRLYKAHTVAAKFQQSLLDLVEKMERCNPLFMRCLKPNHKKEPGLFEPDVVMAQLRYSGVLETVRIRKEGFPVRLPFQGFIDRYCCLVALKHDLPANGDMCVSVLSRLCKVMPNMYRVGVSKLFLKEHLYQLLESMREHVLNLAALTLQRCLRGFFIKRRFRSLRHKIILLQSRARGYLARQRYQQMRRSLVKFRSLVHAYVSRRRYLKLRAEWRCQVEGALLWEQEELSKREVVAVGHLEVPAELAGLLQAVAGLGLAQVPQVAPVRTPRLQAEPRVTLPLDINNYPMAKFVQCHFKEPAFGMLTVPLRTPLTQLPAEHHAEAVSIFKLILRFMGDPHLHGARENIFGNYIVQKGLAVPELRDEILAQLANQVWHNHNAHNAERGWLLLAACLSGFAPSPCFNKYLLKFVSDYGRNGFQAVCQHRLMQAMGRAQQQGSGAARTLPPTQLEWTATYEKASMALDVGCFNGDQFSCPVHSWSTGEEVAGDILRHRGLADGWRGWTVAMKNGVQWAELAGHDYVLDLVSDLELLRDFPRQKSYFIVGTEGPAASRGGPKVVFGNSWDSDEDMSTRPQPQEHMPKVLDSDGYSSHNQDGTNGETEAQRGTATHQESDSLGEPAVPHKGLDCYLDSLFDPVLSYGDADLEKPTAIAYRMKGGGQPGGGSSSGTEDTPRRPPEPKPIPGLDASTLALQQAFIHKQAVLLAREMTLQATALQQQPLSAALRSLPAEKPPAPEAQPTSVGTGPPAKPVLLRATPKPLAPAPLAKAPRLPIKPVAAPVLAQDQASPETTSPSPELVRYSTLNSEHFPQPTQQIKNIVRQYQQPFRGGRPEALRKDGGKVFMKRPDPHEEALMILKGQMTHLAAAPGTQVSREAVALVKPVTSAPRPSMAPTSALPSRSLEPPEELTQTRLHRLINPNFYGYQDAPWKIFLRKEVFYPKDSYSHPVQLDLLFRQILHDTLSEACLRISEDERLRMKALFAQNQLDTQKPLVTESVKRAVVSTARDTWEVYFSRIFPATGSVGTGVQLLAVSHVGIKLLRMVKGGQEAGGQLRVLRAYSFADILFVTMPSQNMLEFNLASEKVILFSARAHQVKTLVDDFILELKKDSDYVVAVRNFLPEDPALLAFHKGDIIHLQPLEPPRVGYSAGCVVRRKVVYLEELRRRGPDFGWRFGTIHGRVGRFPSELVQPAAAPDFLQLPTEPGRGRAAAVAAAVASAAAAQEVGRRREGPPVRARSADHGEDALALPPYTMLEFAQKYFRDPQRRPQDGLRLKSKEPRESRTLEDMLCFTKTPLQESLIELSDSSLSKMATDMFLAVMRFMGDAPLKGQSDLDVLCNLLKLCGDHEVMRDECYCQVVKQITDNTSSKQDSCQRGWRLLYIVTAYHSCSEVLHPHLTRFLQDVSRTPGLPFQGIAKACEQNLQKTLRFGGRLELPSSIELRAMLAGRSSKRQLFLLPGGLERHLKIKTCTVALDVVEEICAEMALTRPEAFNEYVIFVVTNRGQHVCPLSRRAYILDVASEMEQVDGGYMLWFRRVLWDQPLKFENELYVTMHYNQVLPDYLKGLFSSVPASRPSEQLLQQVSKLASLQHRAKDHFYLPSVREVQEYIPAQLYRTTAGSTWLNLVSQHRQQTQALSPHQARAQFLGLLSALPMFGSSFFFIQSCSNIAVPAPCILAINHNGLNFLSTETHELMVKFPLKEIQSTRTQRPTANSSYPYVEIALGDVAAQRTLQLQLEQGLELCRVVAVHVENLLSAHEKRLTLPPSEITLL
UniProt Q8N1I0: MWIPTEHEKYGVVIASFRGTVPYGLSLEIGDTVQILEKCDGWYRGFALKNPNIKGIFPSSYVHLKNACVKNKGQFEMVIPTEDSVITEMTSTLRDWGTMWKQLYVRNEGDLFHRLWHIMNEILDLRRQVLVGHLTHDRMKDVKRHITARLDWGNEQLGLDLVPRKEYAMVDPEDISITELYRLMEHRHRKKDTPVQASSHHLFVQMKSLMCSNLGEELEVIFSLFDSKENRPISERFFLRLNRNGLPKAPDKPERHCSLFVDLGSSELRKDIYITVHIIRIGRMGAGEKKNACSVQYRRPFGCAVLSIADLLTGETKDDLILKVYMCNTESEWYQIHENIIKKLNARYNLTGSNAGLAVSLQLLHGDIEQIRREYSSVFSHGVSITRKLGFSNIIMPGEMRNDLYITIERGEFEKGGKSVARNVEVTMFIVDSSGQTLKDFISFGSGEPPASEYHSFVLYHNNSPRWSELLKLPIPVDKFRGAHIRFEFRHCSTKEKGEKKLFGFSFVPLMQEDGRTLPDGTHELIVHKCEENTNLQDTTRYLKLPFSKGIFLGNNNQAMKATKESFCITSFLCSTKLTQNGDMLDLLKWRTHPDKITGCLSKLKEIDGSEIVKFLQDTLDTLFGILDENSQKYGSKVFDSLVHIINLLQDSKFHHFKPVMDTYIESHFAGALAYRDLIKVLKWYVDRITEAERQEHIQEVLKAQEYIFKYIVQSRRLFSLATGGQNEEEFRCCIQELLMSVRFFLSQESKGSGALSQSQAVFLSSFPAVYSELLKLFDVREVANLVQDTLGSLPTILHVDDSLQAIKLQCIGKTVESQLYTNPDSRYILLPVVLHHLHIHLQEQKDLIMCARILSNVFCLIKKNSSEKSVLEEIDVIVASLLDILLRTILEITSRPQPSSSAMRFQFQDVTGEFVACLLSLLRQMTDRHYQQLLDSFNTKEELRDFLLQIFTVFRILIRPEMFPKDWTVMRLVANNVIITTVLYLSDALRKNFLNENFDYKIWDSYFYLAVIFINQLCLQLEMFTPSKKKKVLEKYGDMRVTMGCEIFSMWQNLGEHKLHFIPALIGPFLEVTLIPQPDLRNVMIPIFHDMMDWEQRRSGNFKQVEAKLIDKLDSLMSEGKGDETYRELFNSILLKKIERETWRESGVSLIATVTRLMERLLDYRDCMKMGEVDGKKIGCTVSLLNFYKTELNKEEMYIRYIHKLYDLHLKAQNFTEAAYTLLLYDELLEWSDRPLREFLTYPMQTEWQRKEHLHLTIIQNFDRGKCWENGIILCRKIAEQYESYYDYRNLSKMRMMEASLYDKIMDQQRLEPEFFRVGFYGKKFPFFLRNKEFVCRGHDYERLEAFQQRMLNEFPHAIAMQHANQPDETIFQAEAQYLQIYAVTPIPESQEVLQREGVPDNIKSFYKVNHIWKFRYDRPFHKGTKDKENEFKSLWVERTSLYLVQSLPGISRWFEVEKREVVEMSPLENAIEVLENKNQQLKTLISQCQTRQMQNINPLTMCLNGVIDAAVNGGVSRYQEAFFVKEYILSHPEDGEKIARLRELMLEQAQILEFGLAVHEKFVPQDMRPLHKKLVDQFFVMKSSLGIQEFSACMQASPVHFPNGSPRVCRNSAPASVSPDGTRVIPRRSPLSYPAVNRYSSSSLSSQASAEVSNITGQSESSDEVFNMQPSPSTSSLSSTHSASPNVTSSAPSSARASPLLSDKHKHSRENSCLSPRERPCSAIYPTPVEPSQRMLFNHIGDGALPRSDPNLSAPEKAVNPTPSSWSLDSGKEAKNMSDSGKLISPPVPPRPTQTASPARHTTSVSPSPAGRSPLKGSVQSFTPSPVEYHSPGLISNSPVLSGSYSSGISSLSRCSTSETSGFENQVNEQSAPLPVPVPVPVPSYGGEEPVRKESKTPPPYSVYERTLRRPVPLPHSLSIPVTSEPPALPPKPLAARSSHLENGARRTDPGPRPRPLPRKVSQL
UniProt Q92882: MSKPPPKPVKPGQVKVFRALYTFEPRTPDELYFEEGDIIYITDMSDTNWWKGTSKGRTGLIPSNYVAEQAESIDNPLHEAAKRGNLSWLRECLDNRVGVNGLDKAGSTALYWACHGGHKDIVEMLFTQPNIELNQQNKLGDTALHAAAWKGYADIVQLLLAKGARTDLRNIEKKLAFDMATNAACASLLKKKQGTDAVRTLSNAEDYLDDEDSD
UniProt P42680: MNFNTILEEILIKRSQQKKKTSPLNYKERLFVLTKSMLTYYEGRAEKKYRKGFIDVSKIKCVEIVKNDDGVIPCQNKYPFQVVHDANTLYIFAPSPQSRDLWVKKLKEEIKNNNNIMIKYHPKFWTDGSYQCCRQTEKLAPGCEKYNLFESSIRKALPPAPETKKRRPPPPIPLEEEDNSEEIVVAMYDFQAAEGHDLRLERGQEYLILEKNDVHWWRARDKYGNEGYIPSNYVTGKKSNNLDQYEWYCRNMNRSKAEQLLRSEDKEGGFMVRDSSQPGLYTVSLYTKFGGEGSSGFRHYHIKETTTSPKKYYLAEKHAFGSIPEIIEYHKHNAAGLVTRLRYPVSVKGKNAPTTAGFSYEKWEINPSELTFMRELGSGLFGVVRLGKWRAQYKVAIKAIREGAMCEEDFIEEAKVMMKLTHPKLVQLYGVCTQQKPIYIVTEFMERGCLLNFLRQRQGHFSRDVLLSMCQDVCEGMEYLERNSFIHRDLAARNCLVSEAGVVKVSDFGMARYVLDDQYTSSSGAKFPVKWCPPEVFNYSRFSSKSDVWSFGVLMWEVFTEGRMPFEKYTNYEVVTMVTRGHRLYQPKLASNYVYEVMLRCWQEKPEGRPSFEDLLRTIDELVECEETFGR

No constants are given. Whether binding was seen depends on the method and setting. For some assays here: A result given as binding can be weak or reduced; the word gives no strength. Where a sequence is shown, tags or fusion partners need not be part of it. For some assays here: Binding seen in cells or lysates may run through a third protein.

First the molecules themselves.
T1: GST-hFasL(1-80) fusion protein (human) (UniProt P48023)
T1 sequence: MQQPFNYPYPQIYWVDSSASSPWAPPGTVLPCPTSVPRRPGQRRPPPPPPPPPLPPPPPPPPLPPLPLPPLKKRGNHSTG

B1: HA-tagged full length SNX33 (protein, UniProt Q8WV41 1-574)
chain: MALKGRALYDFHSENKEEISIQQDEDLVIFSETSLDGWLQGQNSRGETGLFPASYVEIVRSGISTNHADYSSSPAGSPGAQVSLYNSPSVASPARSGGGSGFLSNQGSFEEDDDDDWDDWDDGCTVVEEPRAGGLGTNGHPPLNLSYPGAYPSQHMAFRPKPPLERQDSLASAKRGSVVGRNLNRFSCFVRSGVEAFILGDVPMMAKIAETYSIEMGPRGPQWKANPHPFACSVEDPTKQTKFKGIKSYISYKLTPTHAASPVYRRYKHFDWLYNRLLHKFTVISVPHLPEKQATGRFEEDFIEKRKRRLILWMDHMTSHPVLSQYEGFQHFLSCLDDKQWKMGKRRAEKDEMVGASFLLTFQIPTEHQDLQDVEDRVDTFKAFSKKMDDSVLQLSTVASELVRKHVGGFRKEFQKLGSAFQAISHSFQMDPPFCSEALNSAISHTGRTYEAIGEMFAEQPKNDLFQMLDTLSLYQGLLSNFPDIIHLQKGAFAKVKESQRMSDEGRMVQDEADGIRRRCRVVGFALQAEMNHFHQRRELDFKHMMQNYLRQQILFYQRVGQQLEKTLRMYDNL

One assay has as its target T1, GST-hFasL(1-80) fusion protein (human). In words: phage display library panning; GST-hFasL(1-80) covalently bound to epoxy magnetic beads (Dynabeads M-270); library of 288 human SH3 domains as pVIII fusions on phage, 6 x 10^9 PFU, 1.5 h at room temperature; washes with 0.15% or 0.5% Tween-20; bound clones sequenced; domains also found in the GST panning excluded; only the target purified.
As for “SH3 domain of ARHGAP9, displayed on phage (from UniProt Q9BRR9) (domain or fragment)”, the binding entry is given as “binds”.

As for “SH3 domain of CD2BP1, displayed on phage (human) (domain or fragment)”, the binding result is given as “binds”.

Turning to “SH3 domain of EGFR kinase substrate 8-like protein 3, displayed on phage (from UniProt Q8TE67) (domain or fragment)”, the binding entry is recorded as “binds”.

For “SH3 domain of Fyn-binding protein, displayed on phage (human) (domain or fragment)”, the binding entry is on record as “binds”.

“SH3 domain of Myosin XV, displayed on phage (from UniProt Q9UKN7) (domain or fragment)”: the binding result is “binds”.

In the case of “SH3 domain of PI3K regulatory subunit alpha, displayed on phage (from UniProt P27986) (domain or fragment)”, the binding result is reported as “binds”.

For the molecule “SH3 domain of SAM domain-containing protein SAMSN-1, displayed on phage (from UniProt Q9NSI8) (domain or fragment)”, the binding entry is “binds”.

Regarding “SH3 domain of SH3 domain-containing protein 7A5, displayed on phage (from UniProt Q6ZN28) (domain or fragment)”, the binding entry is “binds”.

On to “SH3 domain of SLIT-ROBO Rho GAP 1, displayed on phage (from UniProt Q7Z6B7) (domain or fragment)”, for which the binding entry is “binds”.

In the case of “SH3 domain of SLIT-ROBO Rho GAP 2, displayed on phage (from UniProt O75044) (domain or fragment)”, the binding entry is “binds”.

Regarding “SH3 domain of Src kinase-associated phosphoprotein 2, displayed on phage (from UniProt O75563) (domain or fragment)”, the binding entry is “binds”.

Regarding “SH3 domain of dedicator of cytokinesis protein 4, displayed on phage (from UniProt Q8N1I0) (domain or fragment)”, the binding result is listed as “binds”.

“SH3 domain of disks large homology 2, displayed on phage (from UniProt Q15700) (domain or fragment)”: the binding entry is “binds”.

On to “SH3 domain of endophilin-A3, displayed on phage (from UniProt Q99963) (domain or fragment)”, for which the binding entry is reported as “binds”.

For “SH3 domain of osteoclast-stimulating factor 1, displayed on phage (from UniProt Q92882) (domain or fragment)”, the binding result is recorded as “binds”.

Turning to “SH3 domain of sorting nexin 9, displayed on phage (from UniProt Q9Y5X1) (domain or fragment)”, the binding entry is reported as “binds”.

In the case of “SH3 domain of sorting nexin 33, displayed on phage (from UniProt Q8WV41) (domain or fragment)”, the binding entry is reported as “binds”.

For “SH3 domain of spectrin alpha chain, displayed on phage (from UniProt P02549) (domain or fragment)”, the binding entry was “binds”.

As for “SH3 domain of tight junction protein ZO-3, displayed on phage (from UniProt O95049) (domain or fragment)”, the binding entry is recorded as “binds”.

As for “SH3 domain of tyrosine protein kinase Btk, displayed on phage (from UniProt Q06187) (domain or fragment)”, the binding entry is “binds”.

Take “SH3 domain of tyrosine protein kinase Fyn, displayed on phage (from UniProt P06241) (domain or fragment)”: the binding result is “binds”.

In the case of “SH3 domain of tyrosine protein kinase Hck, displayed on phage (from UniProt P08631) (domain or fragment)”, the binding entry was “binds”.

In the case of “SH3 domain of tyrosine protein kinase Itk, displayed on phage (from UniProt Q08881) (domain or fragment)”, the binding entry is “binds”.

As to “SH3 domain of tyrosine protein kinase Lyn, displayed on phage (from UniProt P07948) (domain or fragment)”, the binding result was “binds”.

For the molecule “SH3 domain of tyrosine protein kinase Tec, displayed on phage (from UniProt P42680) (domain or fragment)”, the binding result is reported as “binds”.

In the case of “SH3 domain of tyrosine protein kinase Yes, displayed on phage (from UniProt P07947) (domain or fragment)”, the binding entry is “binds”.

As to “SH3 domain of voltage-dependent L-type calcium channel subunit beta-3, displayed on phage (from UniProt P54284) (domain or fragment)”, the binding entry was “binds”.

In the case of “first SH3 domain of kalirin, displayed on phage (from UniProt O60229) (domain or fragment)”, the binding entry is recorded as “binds”.

“first SH3 domain of p47phox, displayed on phage (from UniProt P14598) (domain or fragment)”: the binding entry is recorded as “binds”.

Regarding “fourth SH3 domain of dynamin-binding protein, displayed on phage (from UniProt Q6XZF7) (domain or fragment)”, the binding result is “binds”.

“second SH3 domain of Nck1, displayed on phage (from UniProt P16333) (domain or fragment)”: the binding entry is recorded as “binds”.

“second SH3 domain of Nck2, displayed on phage (from UniProt O43639) (domain or fragment)”: the binding entry was “binds”.

In the case of “second SH3 domain of RIMS-binding protein 3C, displayed on phage (from UniProt A6NJZ7) (domain or fragment)”, the binding result is “binds”.

In the case of “second SH3 domain of intersectin 2, displayed on phage (from UniProt Q9NZM3) (domain or fragment)”, the binding entry was “binds”.

Another assay has as its target Glutathione S-transferase (GST). As to the kind of experiment: pull-down; GST-hFasL(1-80) or GST with glutathione sepharose beads, overnight; NP-40 lysates of HEK 293 T cells transfected with HA-tagged sorting nexins; four washes with NP-40 lysis buffer; Western blot with anti-HA mAb 3F10; only the target purified.
B1: the binding result is on record as “no binding”.
